From patent US20240228482A1, “COMPOUNDS, COMPOSITIONS AND METHODS OF TREATING CANCER” (HOTSPOT THERAPEUTICS, INC., priority 2021, published 2024)

Protein sequences, listed by entry. Tags and fused reporters are not part of them.
UniProt Q13191, whole entry: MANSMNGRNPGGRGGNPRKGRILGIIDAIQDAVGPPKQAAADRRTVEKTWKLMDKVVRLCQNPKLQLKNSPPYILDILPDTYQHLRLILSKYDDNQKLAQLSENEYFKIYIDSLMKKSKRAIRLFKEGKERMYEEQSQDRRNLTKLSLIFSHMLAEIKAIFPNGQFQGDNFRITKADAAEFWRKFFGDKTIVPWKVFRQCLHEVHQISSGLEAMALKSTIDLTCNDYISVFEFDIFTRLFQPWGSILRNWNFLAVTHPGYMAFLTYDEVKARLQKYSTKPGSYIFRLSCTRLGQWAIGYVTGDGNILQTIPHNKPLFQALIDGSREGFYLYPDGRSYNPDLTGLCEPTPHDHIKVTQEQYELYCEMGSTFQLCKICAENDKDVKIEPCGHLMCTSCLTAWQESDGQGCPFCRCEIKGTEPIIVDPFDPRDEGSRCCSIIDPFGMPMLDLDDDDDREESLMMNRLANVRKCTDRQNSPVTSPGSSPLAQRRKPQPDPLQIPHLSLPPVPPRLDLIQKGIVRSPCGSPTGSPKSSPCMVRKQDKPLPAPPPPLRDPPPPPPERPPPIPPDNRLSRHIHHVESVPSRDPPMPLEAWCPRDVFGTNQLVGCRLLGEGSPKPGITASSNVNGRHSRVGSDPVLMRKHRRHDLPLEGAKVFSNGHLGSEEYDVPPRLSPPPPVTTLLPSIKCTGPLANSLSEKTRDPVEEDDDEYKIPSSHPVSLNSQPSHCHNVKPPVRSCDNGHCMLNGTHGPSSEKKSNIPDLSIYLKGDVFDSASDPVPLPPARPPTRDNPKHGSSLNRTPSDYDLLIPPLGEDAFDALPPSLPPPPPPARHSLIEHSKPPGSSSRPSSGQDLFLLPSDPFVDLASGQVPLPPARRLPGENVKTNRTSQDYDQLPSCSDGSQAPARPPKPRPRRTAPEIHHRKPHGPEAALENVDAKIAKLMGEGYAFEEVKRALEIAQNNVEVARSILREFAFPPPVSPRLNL

Molecular target: CBL-B (Homo sapiens, UniProt Q13191)
Assay: CBL-B TR-FRET IC50 screening (E1/E2 ubiquitination, Biotin-Ubiquitin, Anti GST-Tb donor / Streptavidin-d2 acceptor)
Conditions: read-out: CBL-B TR-FRET activity IC50; CBL-B 10 nM final; 11-point titration from 100 uM; binned A-F
Procedure: Example 625. IC50 Screening
• a) Thaw UBE1, UBCH5b, CBL-B, Biotin-Ubiquitin, CBL-B assay buffer, and ATP on ice. Aliquot each protein, CBL-B assay buffer, and ATP into single-use aliquots and stored at −80° C. immediately. • b) Transfer 100 mL test compound (10 mM stock solution, start at 100 uM, 1:3 dilution, 11 points) and then backfill 100 mL DMSO to each well designated for the “Test compound” by Echo. • c) Transfer 200 mL DMSO to each well designated for the “High Control”, “Low Control” by Echo. • d) Carefully calculate the amount of proteins needed. Prepare appropriate amounts of diluted proteins; dilute only the amount required for the assay. […] Keep the diluted reagents on ice until use. • e) Add 2.5 μl diluted CBL-B (40 nM) for the “High Control” and “Test compound”, the final concentration is 10 nM. For the “Low Control”, add 2.5 μL buffer each well. Pre-incubate for 15 min. • f) Centrifuge at 1000 rpm for 1 minute and shake plate at a speed of 600 rpm for 5 minutes. • g) Prepare the Master Mixture (E1E2) using diluted reagents: N wells×(1 μl Biotin-Ub+0.5 μl diluted UBE1+1 μl diluted UBCH5+5 μl ATP). […] Incubate at room temperature for one hour. • k) Read the fluorescent intensity with EnVison2104 (PerkinElmer Life Sciences). […] Tb-donor emission should be measured at 615 nM followed by dye-acceptor emission at 665 nm. […]

Structure (SMILES): Cn1cnnc1CC1(c2cccc(-n3cc4c(C(F)(F)F)cc(CN5CC(O)C5)cn4c3=O)c2)COC1 [Compound 61]
- IC50: < 100 nM

The structures given here were assigned with low confidence; some may be wrong.
